Data reported in article PMC3355305, “Localized Dimerization and Nucleoid Binding Drive Gradient Formation by the Bacterial Cell Division Inhibitor MipZ” (Molecular Cell, 2012).

Target: T1, ParB, bacterial two-hybrid fusion (Caulobacter crescentus) (UniProt P0CAV8)
T1 sequence: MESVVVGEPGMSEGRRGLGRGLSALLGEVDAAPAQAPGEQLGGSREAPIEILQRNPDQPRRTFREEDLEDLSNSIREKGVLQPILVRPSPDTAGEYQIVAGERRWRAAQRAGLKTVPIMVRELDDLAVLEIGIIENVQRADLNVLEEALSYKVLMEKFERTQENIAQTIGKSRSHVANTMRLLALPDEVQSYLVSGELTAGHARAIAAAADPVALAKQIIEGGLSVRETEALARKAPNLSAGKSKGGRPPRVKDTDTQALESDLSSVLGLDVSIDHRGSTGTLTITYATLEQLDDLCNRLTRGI
Assay: two-hybrid; bacterial two-hybrid, E. coli BTH101, T18 and T25 fragments of adenylate cyclase; interaction evidenced by red colonies

binding	Substance
binds	MipZ-G14V, bacterial two-hybrid fusion (Caulobacter crescentus)
binds	MipZ-K13A, bacterial two-hybrid fusion (Caulobacter crescentus)
binds	MipZ (wild type), bacterial two-hybrid fusion (Caulobacter crescentus)
binds	MipZ-K18Q, bacterial two-hybrid fusion (Caulobacter crescentus)
no binding	MipZ-D42A, bacterial two-hybrid fusion (Caulobacter crescentus)

Results are given in words; binding and its absence hold for the method and conditions named. A result given as binding can be weak or reduced; the word gives no strength. Sequences can lack the tags named with a protein.
